# According to patent publication US9579380B2, “Microporation of tissue for delivery of bioactive agents” (priority 1996, dated 2017):
# System: skin of the subjects left forearm
smiles,measurement,setting,value
CCN(CC)CC(=O)Nc1c(C)cccc1C [lidocaine],"numbness scale (10 = no numbness, 0 = complete numbness)","Site 1 control, no poration, no sonic energy, at approximately 20 minutes",3
same,diameter of totally numb circle,"Site 2 porated plus ultrasound, after the second 5 minute application",about 1.2 cm
same,diameter of circle outside which no numbness,"Site 2 porated plus ultrasound, first 5 minute application",2.5 cm
